PubChem BioAssay AID1508597 – Cure First | 2020

- Assay: 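Survival screen with siRNA in ovarian cancer cells derived from patients, with or without rucaparib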 (primary screen)
- Cells: human ovarian carcinoma lines grown from tumours: OCI-P5x (papillary serous) and OCI-C5x (clear cell)
- Knock-down reagent: siRNA pool against human genes, 1.25 pmol siRNA per well
- Duration: 72 h or 96 h, depending on the cell culture
- Challenge: rucaparib 20 µM (about IC30) or vehicle, present until read-out
- Rucaparib or vehicle: Rucaparib
- Cell line: OCI-C5x (clear cell)
- Measurement: 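Luminescent ATP-based viability assay read 72 or 96 h after transfection, depending on culture, given as normalised percent viability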
- Scale: viability, normalised: higher = more viable cells remaining
- Rule for the call: 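Active when normalised viability falls below 80 percent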
- Meaning of the calls: active = viability under 80%; inactive = viability 80% or more
Shown is an unselected part of the about 2,100 reagents, in one setting of the screen. 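Calls flag viability under 80% in either arm, not effects specific to rucaparib; the reference for percent is not stated.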 A reagent listed more than once was tested more than once; the source does not tell the runs apart. The record does not give: the 100% reference.

| gene | technical replicate | viability, normalised (%) | activity call |
| --- | --- | --- | --- |
| HIPK3 (homeodomain interacting protein kinase 3) | 1 | 53.7 | active |
| HIPK3 (homeodomain interacting protein kinase 3) | 2 | 56.2 | active |
| HIPK3 (homeodomain interacting protein kinase 3) | 3 | 60.8 | active |
| SPHK2 (sphingosine kinase 2) | 1 | 46.7 | active |
| SPHK2 (sphingosine kinase 2) | 2 | 38 | active |
| SPHK2 (sphingosine kinase 2) | 3 | 33.4 | active |
| SHPK (sedoheptulokinase) | 1 | 57.9 | active |
| SHPK (sedoheptulokinase) | 2 | 63.2 | active |
| SHPK (sedoheptulokinase) | 3 | 66.8 | active |
| MAEL (maelstrom spermatogenic transposon silencer) | 1 | 47.1 | active |
| MAEL (maelstrom spermatogenic transposon silencer) | 2 | 52.4 | active |
| MAEL (maelstrom spermatogenic transposon silencer) | 3 | 58.4 | active |
| HMGA2 (high mobility group AT-hook 2) | 1 | 54.4 | active |
| HMGA2 (high mobility group AT-hook 2) | 2 | 37.3 | active |
| HMGA2 (high mobility group AT-hook 2) | 3 | 39.8 | active |
| CDK16 (cyclin dependent kinase 16) | 1 | 63.4 | active |
| CDK16 (cyclin dependent kinase 16) | 2 | 68.5 | active |
| CDK16 (cyclin dependent kinase 16) | 3 | 68.9 | active |
| SMARCD3 (SWI/SNF related BAF chromatin remodeling complex subunit D3) | 1 | 36.5 | active |
| SMARCD3 (SWI/SNF related BAF chromatin remodeling complex subunit D3) | 2 | 32 | active |
| SMARCD3 (SWI/SNF related BAF chromatin remodeling complex subunit D3) | 3 | 26.1 | active |
| AUNIP (aurora kinase A and ninein interacting protein) | 1 | 20.6 | active |
| AUNIP (aurora kinase A and ninein interacting protein) | 2 | 15.1 | active |
| AUNIP (aurora kinase A and ninein interacting protein) | 3 | 19.5 | active |
| MMS19 (MMS19 cytosolic iron-sulfur assembly component) | 1 | 45.4 | active |
| MMS19 (MMS19 cytosolic iron-sulfur assembly component) | 2 | 38.9 | active |
| MMS19 (MMS19 cytosolic iron-sulfur assembly component) | 3 | 47.7 | active |

Continued, starting with the last 5 of the part before.
| gene | technical replicate | viability, normalised (%) | activity call |
| --- | --- | --- | --- |
| AUNIP (aurora kinase A and ninein interacting protein) | 2 | 15.1 | active |
| AUNIP (aurora kinase A and ninein interacting protein) | 3 | 19.5 | active |
| MMS19 (MMS19 cytosolic iron-sulfur assembly component) | 1 | 45.4 | active |
| MMS19 (MMS19 cytosolic iron-sulfur assembly component) | 2 | 38.9 | active |
| MMS19 (MMS19 cytosolic iron-sulfur assembly component) | 3 | 47.7 | active |
| AEBP2 (AE binding protein 2) | 1 | 59.5 | active |
| AEBP2 (AE binding protein 2) | 2 | 47.1 | active |
| AEBP2 (AE binding protein 2) | 3 | 51.9 | active |
| PIK3C2G | 1 | 39.4 | active |
| PIK3C2G | 2 | 59.8 | active |
| PIK3C2G | 3 | 47.1 | active |
| DAPK3 (death associated protein kinase 3) | 1 | 62.7 | active |
| DAPK3 (death associated protein kinase 3) | 1 | 58.2 | active |
| DAPK3 (death associated protein kinase 3) | 2 | 66.1 | active |
| DAPK3 (death associated protein kinase 3) | 2 | 56.5 | active |
| DAPK3 (death associated protein kinase 3) | 3 | 44.9 | active |
| DAPK3 (death associated protein kinase 3) | 3 | 73.9 | active |
| NSD3 (nuclear receptor binding SET domain protein 3) | 1 | 20.6 | active |
| NSD3 (nuclear receptor binding SET domain protein 3) | 2 | 14.2 | active |
| NSD3 (nuclear receptor binding SET domain protein 3) | 3 | 15.9 | active |
| IRAK4 (interleukin 1 receptor associated kinase 4) | 1 | 57 | active |
| IRAK4 (interleukin 1 receptor associated kinase 4) | 2 | 64.9 | active |
| IRAK4 (interleukin 1 receptor associated kinase 4) | 3 | 53 | active |
| SPTA1 (spectrin alpha, erythrocytic 1) | 1 | 56.7 | active |
| SPTA1 (spectrin alpha, erythrocytic 1) | 2 | 64.6 | active |
| SPTA1 (spectrin alpha, erythrocytic 1) | 3 | 71 | active |
| RBBP7 (RB binding protein 7, chromatin remodeling factor) | 1 | 57.5 | active |
| RBBP7 (RB binding protein 7, chromatin remodeling factor) | 2 | 41.6 | active |
| RBBP7 (RB binding protein 7, chromatin remodeling factor) | 3 | 37.9 | active |
| SIRT2 (sirtuin 2) | 1 | 40 | active |
| SIRT2 (sirtuin 2) | 2 | 35.3 | active |
| SIRT2 (sirtuin 2) | 3 | 27.5 | active |
| MAPK15 (mitogen-activated protein kinase 15) | 1 | 44.6 | active |
| MAPK15 (mitogen-activated protein kinase 15) | 2 | 35.9 | active |
| MAPK15 (mitogen-activated protein kinase 15) | 3 | 29.9 | active |
